The data set in a line: general procedure: Fmoc SPOT synthesis; Teflon-patterned paper (SPOT). The following applies: whole synthesis; for crude LC-MS purity: estimated purity (LC-MS).

Where a sequence shows no end group, the ends are not given.

On to FHRRIKAGRGDS, for which the “crude LC-MS purity” value is listed as 22%. GKKQRFRHRNRK: the difficulty met result is recorded as “low”. Regarding GWQPPARARIG, the “crude LC-MS purity” value is reported as 82%.

Turning to LTGKNFPMFHRN, the “crude LC-MS purity” value is listed as 31%. As to LTTAPKLPKVTR, the “crude LC-MS purity” value is reported as 56%. As for MHRMPSFLPTTL, the “crude LC-MS purity” value was 59%. For PQVTRGDVFTMP, the “crude LC-MS purity” value is given as 18%. As for TVKHRPDALHPQ, the “crude LC-MS purity” value is on record as 67%.

Values taken from patent US20210023523A1 (The Governors of the University of Alberta, priority 2013, published 2021).
